Laboratory results from PMC5738357.
Results are given in words; binding and its absence hold for the method and conditions named. In cells and extracts the contact can be indirect. A yes stands for co-enrichment or nearness to the bait. Other partners may have been found.

Sequences of proteins named here, by UniProt entry; tags and fusion partners are left off.
UniProt P25586: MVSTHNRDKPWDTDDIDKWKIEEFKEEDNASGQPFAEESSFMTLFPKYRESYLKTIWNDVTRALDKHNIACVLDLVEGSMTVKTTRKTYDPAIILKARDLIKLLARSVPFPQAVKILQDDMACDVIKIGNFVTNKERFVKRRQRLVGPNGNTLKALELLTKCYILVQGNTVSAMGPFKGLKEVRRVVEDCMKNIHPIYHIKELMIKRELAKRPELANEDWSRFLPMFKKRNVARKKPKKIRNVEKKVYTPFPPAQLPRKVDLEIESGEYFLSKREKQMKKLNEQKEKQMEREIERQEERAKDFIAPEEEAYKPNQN

T1: scUtp1-FTpA (S. cerevisiae) (UniProt P25635)
T1 sequence: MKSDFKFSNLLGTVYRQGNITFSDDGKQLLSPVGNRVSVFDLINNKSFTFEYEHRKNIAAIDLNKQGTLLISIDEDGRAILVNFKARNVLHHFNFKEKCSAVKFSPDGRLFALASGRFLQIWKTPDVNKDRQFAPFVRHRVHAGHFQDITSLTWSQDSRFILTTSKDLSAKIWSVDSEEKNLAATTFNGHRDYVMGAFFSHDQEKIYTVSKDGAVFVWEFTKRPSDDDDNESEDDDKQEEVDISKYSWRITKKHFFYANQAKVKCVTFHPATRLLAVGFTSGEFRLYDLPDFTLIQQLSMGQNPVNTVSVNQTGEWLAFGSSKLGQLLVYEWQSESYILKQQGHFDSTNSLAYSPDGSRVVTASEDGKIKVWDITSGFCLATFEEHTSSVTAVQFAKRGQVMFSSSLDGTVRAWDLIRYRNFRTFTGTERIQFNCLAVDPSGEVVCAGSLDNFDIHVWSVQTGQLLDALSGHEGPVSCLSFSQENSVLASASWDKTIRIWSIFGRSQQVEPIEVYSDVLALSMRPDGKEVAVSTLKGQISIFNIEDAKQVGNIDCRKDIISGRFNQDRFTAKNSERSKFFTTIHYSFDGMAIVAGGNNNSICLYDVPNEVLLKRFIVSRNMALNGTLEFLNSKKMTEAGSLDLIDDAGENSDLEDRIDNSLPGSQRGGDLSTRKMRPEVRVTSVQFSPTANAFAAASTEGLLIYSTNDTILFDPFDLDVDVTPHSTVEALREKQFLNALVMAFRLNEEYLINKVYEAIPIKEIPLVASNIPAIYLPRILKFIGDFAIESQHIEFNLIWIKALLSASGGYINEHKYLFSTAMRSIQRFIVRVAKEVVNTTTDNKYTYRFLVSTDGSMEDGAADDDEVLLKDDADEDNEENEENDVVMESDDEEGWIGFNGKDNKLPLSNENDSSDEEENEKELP

T2: scDhr1-FTpA (S. cerevisiae) (UniProt Q04217)
T2 sequence: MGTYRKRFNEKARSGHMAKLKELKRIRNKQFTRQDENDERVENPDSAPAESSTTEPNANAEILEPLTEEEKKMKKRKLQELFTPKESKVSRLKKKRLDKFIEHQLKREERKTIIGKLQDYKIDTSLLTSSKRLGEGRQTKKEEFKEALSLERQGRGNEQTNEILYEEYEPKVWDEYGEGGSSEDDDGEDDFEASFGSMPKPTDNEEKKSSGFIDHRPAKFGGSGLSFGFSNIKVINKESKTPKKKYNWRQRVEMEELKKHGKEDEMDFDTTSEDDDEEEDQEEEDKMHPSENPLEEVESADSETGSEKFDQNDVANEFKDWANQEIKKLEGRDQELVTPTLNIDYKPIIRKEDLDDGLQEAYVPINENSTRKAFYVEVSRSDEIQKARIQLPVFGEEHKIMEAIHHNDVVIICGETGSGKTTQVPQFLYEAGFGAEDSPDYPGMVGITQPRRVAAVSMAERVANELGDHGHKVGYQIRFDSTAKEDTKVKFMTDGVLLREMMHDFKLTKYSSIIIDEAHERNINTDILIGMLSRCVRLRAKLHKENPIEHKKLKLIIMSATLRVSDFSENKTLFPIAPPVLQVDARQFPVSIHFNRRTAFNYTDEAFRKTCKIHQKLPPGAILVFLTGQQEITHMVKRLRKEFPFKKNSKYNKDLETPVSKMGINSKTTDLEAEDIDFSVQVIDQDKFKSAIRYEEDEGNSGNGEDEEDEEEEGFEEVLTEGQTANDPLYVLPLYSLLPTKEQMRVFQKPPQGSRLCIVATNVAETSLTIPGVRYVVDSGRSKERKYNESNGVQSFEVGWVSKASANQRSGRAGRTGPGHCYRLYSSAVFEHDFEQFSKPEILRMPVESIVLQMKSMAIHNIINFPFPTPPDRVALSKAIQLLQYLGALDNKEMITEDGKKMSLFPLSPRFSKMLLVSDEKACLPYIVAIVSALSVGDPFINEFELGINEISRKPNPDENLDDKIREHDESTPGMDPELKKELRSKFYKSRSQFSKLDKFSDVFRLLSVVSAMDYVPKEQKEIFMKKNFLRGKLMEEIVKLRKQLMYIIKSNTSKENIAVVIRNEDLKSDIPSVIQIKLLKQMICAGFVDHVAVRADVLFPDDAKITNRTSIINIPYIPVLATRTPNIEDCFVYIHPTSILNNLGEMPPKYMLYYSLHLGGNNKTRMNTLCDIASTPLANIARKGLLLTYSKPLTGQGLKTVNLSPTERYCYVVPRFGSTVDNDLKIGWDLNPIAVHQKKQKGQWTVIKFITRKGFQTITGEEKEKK


Key:
[1] = molecular target: T1, scUtp1-FTpA (S. cerevisiae); assay: affinity purification with mass spectrometry; tandem affinity-purification of FTpA-tagged yeast baits (IgG Sepharose, TEV, Flag agarose); SDS-PAGE, Coomassie, bands identified by mass spectrometry; cells expressing or depleted of Dim2 (GAL::scDIM2, glucose 8 h) or with or without Krr1 degradation (auxin 90 min)
[2] = molecular target: scKrr1-FTpA (S. cerevisiae) (UniProt P25586); assay: as above
[3] = molecular target: scKrr1-FTpA (S. cerevisiae) (UniProt P25586); assay: affinity purification with mass spectrometry; semi-quantitative mass spectrometry (1D nLC-ESI-MS-MS, MaxQuant iBAQ normalised to the bait) of FTpA eluates from depleted and non-depleted cells
[4] = molecular target: T2, scDhr1-FTpA (S. cerevisiae); assay: affinity purification with mass spectrometry; tandem affinity-purification of FTpA-tagged yeast baits (IgG Sepharose, TEV, Flag agarose); SDS-PAGE, Coomassie, bands identified by mass spectrometry; cells expressing or depleted of Dim2 (GAL::scDIM2, glucose 8 h) or with or without Krr1 degradation (auxin 90 min)

| binding [1] | binding [2] | binding [3] | binding [4] | Binder |
| --- | --- | --- | --- | --- |
| binds | binds | binds | – | Dhr1 (endogenous, yeast) (protein, UniProt Q04217 1-1267) MGTYRKRFNEKARSGHMAKLKELKRIRNKQFTRQDENDERVENPDSAPAESSTTEPNANAEILEPLTEEEKKMKKRKLQELFTPKESKVSRLKKKRLDKFIEHQLKREERKTIIGKLQDYKIDTSLLTSSKRLGEGRQTKKEEFKEALSLERQGRGNEQTNEILYEEYEPKVWDEYGEGGSSEDDDGEDDFEASFGSMPKPTDNEEKKSSGFIDHRPAKFGGSGLSFGFSNIKVINKESKTPKKKYNWRQRVEMEELKKHGKEDEMDFDTTSEDDDEEEDQEEEDKMHPSENPLEEVESADSETGSEKFDQNDVANEFKDWANQEIKKLEGRDQELVTPTLNIDYKPIIRKEDLDDGLQEAYVPINENSTRKAFYVEVSRSDEIQKARIQLPVFGEEHKIMEAIHHNDVVIICGETGSGKTTQVPQFLYEAGFGAEDSPDYPGMVGITQPRRVAAVSMAERVANELGDHGHKVGYQIRFDSTAKEDTKVKFMTDGVLLREMMHDFKLTKYSSIIIDEAHERNINTDILIGMLSRCVRLRAKLHKENPIEHKKLKLIIMSATLRVSDFSENKTLFPIAPPVLQVDARQFPVSIHFNRRTAFNYTDEAFRKTCKIHQKLPPGAILVFLTGQQEITHMVKRLRKEFPFKKNSKYNKDLETPVSKMGINSKTTDLEAEDIDFSVQVIDQDKFKSAIRYEEDEGNSGNGEDEEDEEEEGFEEVLTEGQTANDPLYVLPLYSLLPTKEQMRVFQKPPQGSRLCIVATNVAETSLTIPGVRYVVDSGRSKERKYNESNGVQSFEVGWVSKASANQRSGRAGRTGPGHCYRLYSSAVFEHDFEQFSKPEILRMPVESIVLQMKSMAIHNIINFPFPTPPDRVALSKAIQLLQYLGALDNKEMITEDGKKMSLFPLSPRFSKMLLVSDEKACLPYIVAIVSALSVGDPFINEFELGINEISRKPNPDENLDDKIREHDESTPGMDPELKKELRSKFYKSRSQFSKLDKFSDVFRLLSVVSAMDYVPKEQKEIFMKKNFLRGKLMEEIVKLRKQLMYIIKSNTSKENIAVVIRNEDLKSDIPSVIQIKLLKQMICAGFVDHVAVRADVLFPDDAKITNRTSIINIPYIPVLATRTPNIEDCFVYIHPTSILNNLGEMPPKYMLYYSLHLGGNNKTRMNTLCDIASTPLANIARKGLLLTYSKPLTGQGLKTVNLSPTERYCYVVPRFGSTVDNDLKIGWDLNPIAVHQKKQKGQWTVIKFITRKGFQTITGEEKEKK |
| – | – | – | binds | Dis3 (protein, UniProt Q08162 1-1001) MSVPAIAPRRKRLADGLSVTQKVFVRSRNGGATKIVREHYLRSDIPCLSRSCTKCPQIVVPDAQNELPKFILSDSPLELSAPIGKHYVVLDTNVVLQAIDLLENPNCFFDVIVPQIVLDEVRNKSYPVYTRLRTLCRDSDDHKRFIVFHNEFSEHTFVERLPNETINDRNDRAIRKTCQWYSEHLKPYDINVVLVTNDRLNREAATKEVESNIITKSLVQYIELLPNADDIRDSIPQMDSFDKDLERDTFSDFTFPEYYSTARVMGGLKNGVLYQGNIQISEYNFLEGSVSLPRFSKPVLIVGQKNLNRAFNGDQVIVELLPQSEWKAPSSIVLDSEHFDVNDNPDIEAGDDDDNNESSSNTTVISDKQRRLLAKDAMIAQRSKKIQPTAKVVYIQRRSWRQYVGQLAPSSVDPQSSSTQNVFVILMDKCLPKVRIRTRRAAELLDKRIVISIDSWPTTHKYPLGHFVRDLGTIESAQAETEALLLEHDVEYRPFSKKVLECLPAEGHDWKAPTKLDDPEAVSKDPLLTKRKDLRDKLICSIDPPGCVDIDDALHAKKLPNGNWEVGVHIADVTHFVKPGTALDAEGAARGTSVYLVDKRIDMLPMLLGTDLCSLKPYVDRFAFSVIWELDDSANIVNVNFMKSVIRSREAFSYEQAQLRIDDKTQNDELTMGMRALLKLSVKLKQKRLEAGALNLASPEVKVHMDSETSDPNEVEIKKLLATNSLVEEFMLLANISVARKIYDAFPQTAMLRRHAAPPSTNFEILNEMLNTRKNMSISLESSKALADSLDRCVDPEDPYFNTLVRIMSTRCMMAAQYFYSGAYSYPDFRHYGLAVDIYTHFTSPIRRYCDVVAHRQLAGAIGYEPLSLTHRDKNKMDMICRNINRKHRNAQFAGRASIEYYVGQVMRNNESTETGYVIKVFNNGIVVLVPKFGVEGLIRLDNLTEDPNSAAFDEVEYKLTFVPTNSDKPRDVYVFDKVEVQVRSVMDPITSKRKAELLLK |
